Data published in PubChem BioAssay AID2685 (National Center for Advancing Translational Sciences (NCATS), 2010).
The other results are listed elsewhere or left out. Further columns of the screen follow, without active or inactive calls. Compounds called inactive in the main read-out are mostly missing here. Words in brackets tell the shape of the fitted curve; partial curves, single points and poor fits give uncertain potencies.

Assay: qHTS Assay for Lipid Storage Modulators in Drosophila S3 Cells;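 as to cell number change: cells counted by Cell Tracker Red CMTPX staining in the red channel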
Settings: BODIPY lipid droplet fluorescence, 18-24 h; for cell number change: measured here: cell count max response, cells fed with added oleic acid
In short: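 Laser-scanning cytometry quantifies lipid droplet accumulation (500–530 nm total intensity; droplet/cell object ratio) in oleic acid-fed (400 uM added) Drosophila S3 cells treated with a concentration series. 20 uM Triacsin C defined 100% inhibition.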

[1] = measured here: cell number channel AC50, cells fed with added oleic acid
[2] = measured here: lipid fluorescence (Fed channel) AC50, cells fed with added oleic acid

Row | Structure (SMILES) | cell number change [%] | AC50 [1] | AC50 [2]
1 | Cc1ccc(C(=O)NNC(=O)COC(=O)COc2ccccc2C#N)cc1 | -40.2 | 4.11 µM [falling, partial curve, poor fit] | 4.61 µM [falling, partial curve, poor fit]
2 | Cc1ccc(C(=O)CNc2ccccc2C)cc1 | 67.2 | 23.1 µM [rising, single point] | 0.116 µM [falling, full curve, poor fit]
3 | O=C(OCCc1cc2ccccc2c(=O)o1)c1ccc(C(F)(F)F)cc1 | -47 | 0.092 µM [falling, full curve, poor fit] | 0.092 µM [falling, full curve, poor fit]
4 | Cc1ccccc1OC(C)C(=O)Nc1ccc2c(c1)OCCO2 (stereo not drawn) | 34 | 6.51 µM [rising, partial curve, poor fit] | 29.1 µM [rising, single point]
5 | CSc1ccccc1NC(=O)CCc1ccccc1 | -14.8 | 6.51 µM [falling, single point] | 2.59 µM [falling, single point]
6 | CN(C(=O)CSc1nc(N)c2c3c(sc2n1)CSC(C)(C)C3)c1ccccc1 | -28.2 |  | 16.4 µM [falling, single point]
7 | Cc1ccc(C)c(N2CCN(CCCNC(=O)Cn3cccc3C(=O)c3ccccc3C)CC2)c1 | -13.9 |  | 29.1 µM [falling, single point]
8 | CCOc1cc(S(=O)(=O)NCCCN2CCOCC2)ccc1F | 24.3 |  | 
9 | O=[N+]([O-])c1ccc2nc(-c3ccccc3[N+](=O)[O-])[nH]c2c1 | -17.3 |  | 29.1 µM [falling, single point]
10 | COc1ccc(C(=O)NC(=S)SCC(=O)O)cc1 | -16.5 |  | 0.651 µM [falling, full curve]
11 | CCc1nnc(NC(=O)C2CC(=O)N(CCc3ccc(F)cc3)C2)s1 (stereo not drawn) | 16.2 |  | 11.6 µM [falling, partial curve, poor fit]
12 | COc1ccc(C2=NN(c3nc(-c4ccc(CNC(C)=O)cc4)cs3)C(c3ccco3)C2)cc1 (stereo not drawn) | 35 | 32.6 µM [rising, partial curve, poor fit] | 
13 | Cc1cc(C)n(CCC(=O)N/N=C/c2cccc([N+](=O)[O-])c2)n1 | 22.5 | 3.26 µM [rising, single point] | 0.517 µM [rising, full curve]
14 | CCOC(=O)N1CCN(C(=O)c2ccc3c(c2)N(Cc2cc(C)ccc2C)C(=O)c2ccccc2S3=O)CC1 (stereo not drawn) | -29.8 |  | 
15 | Cc1ccc2nc(C)c(C(=O)N/N=C/c3cccc([N+](=O)[O-])c3)cc2c1 | 41.8 | 6.51 µM [falling, single point] | 0.116 µM [rising, full curve]
16 | Cc1ccc2oc(C(F)(F)C(F)F)cc(=O)c2c1 | -17.4 | 0.164 µM [falling, full curve, poor fit] | 
17 | CCCCOC(=O)c1ccc(NS(=O)(=O)c2cc(-c3nnnn3CC)ccc2OC)cc1 | -13.4 |  | 2.59 µM [rising, partial curve]
18 | COc1ccc(NC(=O)C2CCCO2)cc1OC (stereo not drawn) | -0.71 |  | 
19 | O=C(COC(=O)CC1CC2CCC1C2)Nc1ccc(Cl)c(S(=O)(=O)N2CCOCC2)c1 (stereo not drawn) | 22.4 |  | 0.58 µM [falling, full curve]
20 | O=C(Cc1ccccc1Cl)NCc1cccnc1 | -20.8 |  | 

Row | Structure (SMILES) | cell number change [%] | AC50 [1] | AC50 [2]
21 | N#Cc1nc(COc2cccc(Cl)c2)oc1N1CCN(c2ccccc2)CC1 | 15.4 |  | 2.31 µM [rising, partial curve]
22 | OC(COC(c1ccc(Cl)cc1)c1ccc(Cl)cc1)CN1CCCC1 (stereo not drawn) | -10.8 |  | 0.13 µM [falling, full curve]
23 | C=CC[n+]1c(C)csc1Nc1ccc(C(=O)O)cc1 | 25.5 |  | 16.4 µM [rising, partial curve, poor fit]
24 | CCOc1ccc(C(=O)Nc2c(C(=O)N3CCC(N4CCCCC4)CC3)oc3ccccc23)cc1 | 26.6 | 0.164 µM [rising, full curve, poor fit] | 
25 | CC(NC(=O)COC(=O)CNC(=O)C1CCCCC1)c1ccccc1 (stereo not drawn) | 6.55 |  | 20.6 µM [rising, partial curve, poor fit]
26 | Cc1cccc(C)c1NC(=S)Nc1ccc(Cl)c(Cl)c1 | -72 | 29.1 µM [falling, single point] | 
27 | O=C1C(=O)N(CCCN2CCOCC2)C(c2ccc(F)cc2)/C1=C(/O)c1ccccc1 (stereo not drawn) | 40.3 | 0.517 µM [rising, full curve, poor fit] | 0.58 µM [falling, single point]
28 | COc1ccc(Br)cc1CNC(=O)C1CCCN(S(=O)(=O)N2CC(C)CC(C)C2)C1 (stereo not drawn) | 18 |  | 
29 | Cc1ccc(S(=O)(=O)CCC(=O)Nc2nc(C(C)(C)C)cs2)cc1 |  |  | 20.6 µM [falling, partial curve]
30 | CCC(Oc1ccccc1)C(=O)Nc1ccccc1N1CCCCC1 (stereo not drawn) | -13.5 |  | 
31 | COc1ccc(C(=O)C=CNNC(=O)c2ccc(Cl)cc2)cc1 | -2.93 |  | 2.06 µM [rising, single point]
32 | O=C(CCC(=O)OCC(=O)c1cccc([N+](=O)[O-])c1)Nc1cccc(Cl)c1Cl | 137 | 29.1 µM [rising, single point] | 20.6 µM [rising, single point]
33 | CCC(C(=O)OCC(=O)Nc1ccc(C(=O)Nc2ccc(OC)cc2)cc1)c1ccccc1 (stereo not drawn) | -44.9 | 6.51 µM [rising, single point] | 0.58 µM [falling, full curve]
34 | Cc1cc(S(=O)(=O)N2CCOCC2)ccc1OCC(=O)Nc1ccc(F)cc1F | 53.3 | 13 µM [rising, partial curve, poor fit] | 29.1 µM [falling, single point]
35 | COc1ccccc1C(=O)Nc1cccc2c1CCCC2 | -28 |  | 
36 | CCCn1c(SCC(=O)NC(=O)NCc2ccco2)n[nH]c1=O | 4.46 |  | 7.31 µM [falling, partial curve, poor fit]
37 | Cc1ccc(C(=O)CSc2nc(C)cc(SCc3nnc(-c4ccccc4)o3)n2)cc1 | 34.1 | 0.82 µM [rising, full curve, poor fit] | 1.3 µM [rising, partial curve]
38 | COc1ccccc1NC(=O)C(NC(=O)OC(C)(C)C)C(C)OCc1ccccc1 (stereo not drawn) | -27.3 |  | 29.1 µM [falling, single point]
39 | CN(Cc1ccc(OC(F)F)cc1)C(=O)c1ccc2nccnc2c1 | 0.218 |  | 29.1 µM [rising, single point]
40 | CCN(C(=O)c1cccc(NC(=O)c2ccccc2)c1)C1CCCCC1 | -13.9 |  | 29.1 µM [falling, single point]

From no. 4 up to 5, copied from above:
Row | Structure (SMILES) | cell number change [%] | AC50 [1] | AC50 [2]
4 | Cc1ccccc1OC(C)C(=O)Nc1ccc2c(c1)OCCO2 (stereo not drawn) | 34 | 6.51 µM [rising, partial curve, poor fit] | 29.1 µM [rising, single point]
5 | CSc1ccccc1NC(=O)CCc1ccccc1 | -14.8 | 6.51 µM [falling, single point] | 2.59 µM [falling, single point]

(listing goes on)

Row | Structure (SMILES) | cell number change [%] | AC50 [1] | AC50 [2]
41 | COC(=O)/C=C1\S/C(=N\N=C\CC(=O)OC)NC1=O | -21.8 |  | 1.3 µM [falling, full curve]
42 | Cc1cc(NC(=O)C(C)SCC(=O)Nc2cc(C(F)(F)F)ccc2N2CCCCC2)no1 (stereo not drawn) |  | 2.31 µM [rising, partial curve] | 1.64 µM [rising, partial curve]
43 | CN(C)CCN1C(=O)c2oc3ccccc3c(=O)c2C1c1cccc(Br)c1 (stereo not drawn) | 57.7 | 7.31 µM [rising, partial curve] | 
44 | C=CCn1cnc2scc(-c3ccc(CC)cc3)c2c1=O | 76.9 | 25.9 µM [rising, partial curve, poor fit] | 0.82 µM [rising, partial curve]
45 | O=C(/C=C/c1ccccc1[N+](=O)[O-])N1CCN(C(=O)c2ccco2)CC1 | 35.3 |  | 
46 | Cc1c(Cl)cccc1NS(=O)(=O)c1ccc(-c2ccc(=O)[nH]n2)o1 | 5.11 |  | 29.1 µM [falling, single point]
47 | Cc1ccc2oc(C(=O)Nc3ccc(S(=O)(=O)Nc4onc(C)c4C)cc3)cc(=O)c2c1 | -18.9 |  | 0.58 µM [rising, single point]
48 | COc1cc2c(cc1OC)CN(C(=O)CSc1nc(C)cc(C)c1C#N)CC2 | -30 |  | 29.1 µM [falling, single point]
49 | CCc1ccc(Nc2n[n+](C)c(-c3ccncc3)s2)cc1 | 14.4 |  | 
50 | COc1ccc(CCN(CC(=O)NCc2ccc(F)cc2)C(=O)c2snc(C(N)=O)c2N)cc1OC | 8.26 |  | 6.51 µM [rising, single point]
51 | Cc1ccc(NS(=O)(=O)c2cc(-c3n[nH]c(=O)c4ccccc34)ccc2C)cc1 | -41 | 29.1 µM [falling, single point] | 0.651 µM [rising, full curve]
52 | CCCCN(CC)S(=O)(=O)c1ccc(C(=O)Nc2nnc(COC)o2)cc1 | -6.41 |  | 
53 | COc1cc(C(=O)NC(C)c2cccc3ccccc23)cc(OC)c1OC (stereo not drawn) | 1.84 |  | 16.4 µM [falling, single point]
54 | N#C/C(=C\c1ccc(O)c(Br)c1)C(=O)N1CCCCC1 | -13 |  | 6.51 µM [falling, single point]
55 | CN(C(=O)COC(=O)c1cc2c(s1)CCCCC2)c1ccccc1 | 13.9 |  | 
56 | CC1(C)CC(N2CCCC2)=CC(=[N+]2CCCCC2)C1 | -38.1 | 1.84 µM [falling, partial curve] | 
57 | CC(OC(=O)CCC(=O)c1ccc(F)cc1)C(=O)NC1CCCCC1C (stereo not drawn) | -23.8 |  | 0.731 µM [falling, full curve, poor fit]
58 | CCNc1nc2c(c(=O)[nH]c(=O)n2C)n1CCCc1ccccc1 | 1.46 |  | 3.26 µM [rising, partial curve]
